Experimental data from PubChem BioAssay AID493014 (National Center for Advancing Translational Sciences (NCATS), 2011).
Among all 340,000 compounds or so, about 170 (0.05%) were called active. This list was built around the results that the source calls inconclusive (neither active nor inactive); the mix of calls is not that of the screen. Calls come from the whole dose curve; as a rule, active = well fitted inhibition curve with a large enough effect in the signal ratio, with a control signal flat (not every such curve was filed as active); inconclusive = small, poorly fitted or top-dose-only effect, or effect the other way, or a change in a side signal; inactive = flat fitted curve, though single readings scatter; the % refers to the signal ratio. Where the call is inconclusive, the potency comes from a doubtful curve fit.

Assay: qHTS Assay to Find Inhibitors of Chronic Active B-Cell Receptor Signaling;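 for activity change, negative = inhibition: plate controls were basal doxycycline-induced cells for no effect and cells given 10 µM MG132 for full effect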
Details: ABC-DLBCL IkBa-CBG/CBR reporter, luminescence ratio (green luciferase fused to IkBa over red control in TMD8 lymphoma cells), 4 h
Summary of the method: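 Doxycycline induced both beetle luciferases in TMD8 lymphoma cells; IKK-driven degradation limits the IkappaBalpha-fused green signal, while red luminescence normalises for cell number and nonspecific effects. Compounds tested up to 46 uM, 4 hrs.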

[1] = activity change, negative = inhibition: at 46.1 µM (top of the series)
Potency is the fitted concentration of half-maximal effect.

Compound: Nc1cccc2c1C(=O)N(Cc1nnc(-c3ccccc3Br)o1)C2=O
- Potency [1]: inconclusive: 20 µM [falling, partial curve, poor fit]

Compound: Cc1[nH]c(=S)c(C#N)c(C)c1Cc1ccc(Cl)cc1Cl
- activity change, negative = inhibition [1]: inactive

Compound: O=C(NCc1cccc(C(F)(F)F)c1)c1ccc2c(c1)OCCO2
- activity change, negative = inhibition [1]: inactive

Compound: CCCOc1ccc(NC(=O)C2CCCNC2=O)cc1 (configuration not stated)
- activity change, negative = inhibition [1]: inconclusive: -5.66%

Compound: S=c1[nH]nc(COc2ccccc2)n1/N=C/c1ccccc1Cl
- activity change, negative = inhibition [1]: inconclusive: -1.53%

Compound: CC(=O)c1c(N2CCN(C)CC2)nc(=S)n(-c2cc(C)ccc2C)c1C
- activity change, negative = inhibition [1]: inconclusive: -1.34%

Compound: COc1ccc(C2=CC(=O)OC3(CCCC3)O2)cc1
- activity change, negative = inhibition [1]: inactive

Compound: Cc1oc(-c2ccccc2)cc1C(=O)Nc1ccc(N(C)C)cc1
- Potency [1]: inconclusive: 0.794 µM [rising, full curve]

Compound: CN(CC(=O)Nc1ccc(OC(F)(F)F)cc1)C(=O)/C=C/c1ccco1
- activity change, negative = inhibition [1]: inactive

Compound: COc1ccc(N2CCN(C(=O)c3cc(=O)c4cc(C)c(C)cc4o3)CC2)cc1
- activity change, negative = inhibition [1]: inconclusive: -0.347%

Compound: Cc1nn(Cc2ccccc2)c(C)c1NC(=O)CSc1nnc(-c2cc(Cl)ccc2O)n1C
- activity change, negative = inhibition [1]: inconclusive: -12.6%

Compound: Nc1n[nH]c(C2CC2)c1N=Nc1ccc(Cl)c(Cl)c1
- activity change, negative = inhibition [1]: inactive

Compound: COc1ccc(-c2cc(C#N)nc(NN)n2)cc1
- activity change, negative = inhibition [1]: inconclusive: 3.66%

Compound: O=C(O)CC(NCc1ccco1)C(=O)OCC1CCCO1 (configuration not stated)
- activity change, negative = inhibition [1]: inconclusive: 0.826%

Compound: CCNS(=O)(=O)c1ccc(CCC(=O)N2CCc3ccccc3C2)cc1
- activity change, negative = inhibition [1]: inactive

Compound: CCOc1ccc(NC(=O)CSC2=C(C#N)C(c3ccc4c(c3)OCO4)CC(=O)N2)cc1 (configuration not stated)
- activity change, negative = inhibition [1]: inconclusive: 5.58%

Compound: CCN(CC)CCOc1ccc(Br)cc1
- activity change, negative = inhibition [1]: inactive

Compound: Cc1ccccc1OCC(=O)NNC(=O)c1ccc2c(=O)n3c(nc2c1)CCC3
- activity change, negative = inhibition [1]: inconclusive: 8.27%

Compound: Cc1cccc(COC(=O)Nc2ccc(NC(=O)c3ccccc3Cl)cc2)c1
- activity change, negative = inhibition [1]: inactive

Compound: COc1ccc(C(=O)/C=C/Nc2cccc(C)n2)cc1OC
- Potency [1]: inconclusive: 25.1 µM [falling, single point]

Compound: COc1cc(OC)cc(-c2sc3ccc(OC)cc3c2-c2ccc3cc[nH]c3c2)c1
- activity change, negative = inhibition [1]: inconclusive: 13%

Compound: CCOC(=O)C1=C(C)NC(C)=C(C(=O)OCC)C1C
- activity change, negative = inhibition [1]: inconclusive: -2.62%
- activity change, negative = inhibition (at 46.1 µM (top of the series)): inactive: -18.9%

Compound: Cc1cccnc1NC(=O)c1ccc2c(c1)NC(=O)C(C)S2 (configuration not stated)
- Potency [1]: inconclusive: 29.1 µM [falling, single point]

Compound: S=C(Nc1ccc(Cl)c(Cl)c1)NC1CCN(Cc2ccccc2)CC1
- activity change, negative = inhibition [1]: inconclusive: -22%

Compound: COc1cccc(N2CCN(c3ncnc4c3[nH]c3ccccc34)CC2C)c1 (configuration not stated)
- Potency [1]: inconclusive: 32.6 µM [rising, single point]

Compound: CC(C)(C)OC(=O)NCCCC[C@H](NC(=O)c1nc[nH]c1C(=O)N[C@@H](CCCCNC(=O)OC(C)(C)C)C(=O)OC(C)(C)C)C(=O)OC(C)(C)C
- activity change, negative = inhibition [1]: inactive

Compound: O=C1CCCN1c1ccc(S(=O)(=O)Oc2ccc(Cl)cc2)cc1[N+](=O)[O-]
- activity change, negative = inhibition [1]: inconclusive: 13.3%

Compound: O=C(O)c1csc(N/N=C/c2ccc(Br)cc2)n1
- Potency [1]: inconclusive: 35.5 µM [falling, single point]

Compound: COc1cc2nc(CN3CCN(S(=O)(=O)c4c(F)cccc4F)CC3)[nH]c(=O)c2cc1OC
- activity change, negative = inhibition [1]: inconclusive: -1.1%

Compound: CCN1CCN(c2ccc(NC(=O)c3ccc4c(c3)[nH]c(=O)n4Cc3ccc(OC)cc3)cc2)CC1
- activity change, negative = inhibition [1]: inactive

Compound: NC(N)=N/N=C/c1ccc(Cl)cc1Cl
- Potency [1]: inconclusive: 11.2 µM [falling, partial curve]

Compound: O=C(Nc1cccc(F)c1)Nc1ccccn1
- activity change, negative = inhibition [1]: inactive

Compound: NC(=O)CC(NC(=O)c1ccc(Br)cc1)c1ccc(N2CCCCCC2)c([N+](=O)[O-])c1 (configuration not stated)
- activity change, negative = inhibition [1]: inactive

Compound: O=C(CSc1nnc(COc2ccccc2)n1Cc1ccco1)c1ccc(F)cc1
- Potency [1]: inconclusive: 17.8 µM [falling, single point]

Compound: Cc1ccc(N2CC(C(=O)Nc3nnc(SCc4ccccn4)s3)CC2=O)cc1 (configuration not stated)
- activity change, negative = inhibition [1]: inactive

Compound: Oc1ccc(/C=N/NC2=NCCCCC2)c(O)c1
- Potency [1]: inconclusive: 16.4 µM [falling, single point]

Compound: COC(=O)c1cc2oc(C)cc2n1CC(=O)N1CCCc2ccccc21
- activity change, negative = inhibition [1]: inactive

Compound: O/N=C/CCn1c(=S)sc2ccccc21
- activity change, negative = inhibition [1]: inactive

Compound: O=C(NNC(=O)c1cc2cc(OC(F)(F)F)ccc2[nH]1)c1ccc(Cl)cc1
- activity change, negative = inhibition [1]: inconclusive: 10.5%

Compound: CC(C)OC(=O)/C(=C/c1ccc(Br)cc1)NC(=O)c1ccco1
- activity change, negative = inhibition [1]: inconclusive: 2.84%

Compound: CCOC(=O)c1sc(NNC(=O)c2ccc(C)cc2)nc1C
- activity change, negative = inhibition [1]: inconclusive: -12.5%

Compound: Clc1ccccc1N/N=C/c1ccc2c(c1)OCO2
- activity change, negative = inhibition [1]: inactive

Compound: Cc1ccc(CCNC(=O)c2c[nH]c3ccc(S(=O)(=O)Nc4ccc(C)cc4C)cc3c2=O)cc1
- Potency [1]: inconclusive: 23.1 µM [rising, partial curve, poor fit]

Compound: CCc1ccccc1OCC(=O)Nc1cccc(S(=O)(=O)NCc2ccco2)c1
- Potency [1]: inconclusive: 0.651 µM [falling, partial curve, poor fit]

Compound: COc1ccc(S(=O)(=O)N2CCOC2CNC(=O)C(=O)NCCCN2CCOCC2)cc1 (configuration not stated)
- activity change, negative = inhibition [1]: inconclusive: 14.4%

Compound: C=CCC[C@H](Cc1ccc(F)cc1)C(=O)OC[C@H](C)NC(=O)[C@@H](CC=C)CC(=O)N[C@H](CO)Cc1ccccc1
- activity change, negative = inhibition [1]: inactive

Compound: COc1ccc(C(=O)N/N=C(\C)CC(=O)Nc2ccc(Cl)cn2)cc1
- Potency [1]: inconclusive: 8.91 µM [falling, partial curve]

Compound: C/C(=N\NC(=O)c1cccs1)c1ccc(C(=O)O)s1
- Potency [1]: inconclusive: 22.4 µM [falling, partial curve]

Compound: COc1ccc(CCNC(=O)C2CC(O)CN2S(=O)(=O)c2ccc(Cl)cc2)cc1OC (configuration not stated)
- activity change, negative = inhibition [1]: inactive

Compound: COCCOC(=O)C1=C(C)N=C2SCCC(=O)N2C1/C=C/c1ccccc1 (configuration not stated)
- activity change, negative = inhibition [1]: inconclusive: -0.396%

Compound: Nc1ncnc2sc3c(c12)CCNC3
- activity change, negative = inhibition [1]: inactive

Compound: CC1(C)CC2CC(C)(CN2C(=O)COC(=O)c2cccc([N+](=O)[O-])c2)C1 (configuration not stated)
- activity change, negative = inhibition [1]: inconclusive: 2.59%

Compound: COc1cc(C=C2C(=O)OC(c3ccccc3)OC2=O)cc(Br)c1O (configuration not stated)
- activity change, negative = inhibition [1]: inactive

Compound: c1ccc(CNc2ccc(N3CCOCC3)cc2)cc1
- activity change, negative = inhibition [1]: inconclusive: 0.255%

Compound: CC(C)CCNC(=O)CCS(=O)(=O)c1cccc2nonc12
- activity change, negative = inhibition [1]: inconclusive: -0.544%

Compound: COc1ccccc1OCC(=O)Nc1ccc(S(=O)(=O)Nc2cc(C)nc(C)n2)cc1
- activity change, negative = inhibition [1]: inconclusive: -13.9%

Compound: Cc1cccc(-c2nc3c4ccccc4n(Cc4cccc(Cl)c4)c(=O)n3n2)c1
- Potency [1]: inconclusive: 0.158 µM [rising, full curve, poor fit]

Compound: O=C(NCCSCc1ccc(Cl)cc1Cl)c1ccc(CN2CCOCC2)cc1
- activity change, negative = inhibition [1]: inconclusive: 2.64%

Compound: O=C(NC(=S)NC1CCCc2ccccc21)c1ccco1 (configuration not stated)
- Potency [1]: inconclusive: 35.5 µM [falling, partial curve, poor fit]

Compound: O=C(Nc1ccc(NC(=O)C2CCCCC2)nc1)c1cccc(F)c1
- activity change, negative = inhibition [1]: inconclusive: 5.94%

Compound: CCOC(=O)c1c(/N=C/c2cc([N+](=O)[O-])ccc2O)sc(C)c1C
- activity change, negative = inhibition [1]: inactive

Compound: CCOc1ccccc1NC(=O)c1cc(C(=O)c2cc(Br)ccc2O)coc1=N
- Potency [1]: inconclusive: 10 µM [falling, partial curve, poor fit]

Compound: COc1ccc(/C=C/C(=O)Oc2cccc(/C=N/NC(=O)Cc3ccc(Br)cc3)c2)cc1
- activity change, negative = inhibition [1]: inconclusive: 8.32%

Compound: CCSc1nnc(NC(=O)CSc2nnc(Cc3cccn3C)n2-c2ccc(C)cc2)s1
- activity change, negative = inhibition [1]: inconclusive: 0.0067%

Compound: O=C(CCN1C(=O)/C(=C/c2ccccc2Cl)SC1=S)NNC(=O)c1cccnc1
- Potency [1]: inconclusive: 35.5 µM [falling, single point]

Compound: COc1ccc(NC(=O)c2ccc3c(SCC(=O)O)c4c(nc3c2)CCCC4)c(OC)c1
- activity change, negative = inhibition [1]: inactive

Compound: Cc1ccc2c(c1)N=C(c1ccc(F)cc1)CO2
- activity change, negative = inhibition [1]: inactive

Compound: COc1ccc2c(CC(=O)OCC(=O)Nc3ccc4c(c3)OCO4)coc2c1
- activity change, negative = inhibition [1]: inconclusive: -7.36%

Compound: Cc1csc(NC(=O)CCc2c(C)nc3cc(-c4ccc(Cl)cc4)nn3c2C)n1
- Potency [1]: inconclusive: 20.6 µM [falling, partial curve]

Compound: CCOc1ccc(NC(=O)CN2CCN(CC(=O)c3ccc(OCC)cc3)CC2)cc1
- Potency [1]: inconclusive: 18.4 µM [falling, single point]

Compound: CCC(CC)C(=O)c1c[nH]c(C(=O)NCCOC)c1
- activity change, negative = inhibition [1]: inconclusive: 4.47%

Compound: Cc1ccc(OCc2cc(C(=O)NCC(C)c3ccccc3)no2)cc1C (configuration not stated)
- activity change, negative = inhibition [1]: inactive

Compound: OCC(Cc1ccccc1)Nc1c2ccccc2nc2ccccc12 (configuration not stated)
- activity change, negative = inhibition [1]: inconclusive: 5.14%

Compound: CC1(C)Cc2ccccc2-c2nc(NCCCO)[nH]c(=O)c21
- activity change, negative = inhibition [1]: inactive

Compound: Cc1cccc(NC(=O)c2cc(S(=O)(=O)NCc3ccco3)ccc2F)c1C
- activity change, negative = inhibition [1]: inconclusive: -3.15%

Compound: Nc1nonc1-n1nnc(C(=O)N/N=C/c2cccs2)c1-c1ccc2c(c1)OCO2
- activity change, negative = inhibition [1]: inactive

Compound: COc1ccc(-c2nnc(SCC(=O)Nc3cc(C)on3)o2)cc1
- Potency [1]: inconclusive: 35.5 µM [falling, single point]

Compound: COc1cc(/C=N/N=C2/NC(=O)C(Cc3ccc(F)cc3)S2)ccc1O (configuration not stated)
- Potency [1]: inconclusive: 12.6 µM [falling, partial curve]

Compound: Cc1ccc2c(C)nc(Nc3nc(CSc4nc5ccccc5[nH]4)cc(=O)[nH]3)nc2c1
- activity change, negative = inhibition [1]: inconclusive: -6.32%

Compound: O=c1cnn(-c2ccccc2)c(-c2ccccc2)c1
- activity change, negative = inhibition [1]: inactive

Compound: O=C(NC1CCN(S(=O)(=O)c2cccc([N+](=O)[O-])c2)CC1)C1CCCCC1
- activity change, negative = inhibition [1]: inactive
